The source of these data is patent US20120149028A1 (LUDWIG MAXIMILIANS UNIVERSITAT M NCHEN, published 2012).

These are yes or no findings as the source states them, for the method shown. A result given as binding can be weak or reduced; the word gives no strength. Sequences can lack the tags named with a protein.

The test addresses RFP-PCNA. Briefly: co-expression in HeLa cells, epifluorescence microscopy.

B1: Chromobody PCNA3p16-GFP (VHH)
VHH: QVQLVESGGGLVQPGGSLRLSCAASGFTFSSYAMSWVRQAPGKGLEWVSDISPSGAVKAYSDSVKGRFTISRDNAKNRLYLQMNSLTPEDTGEYFCTKVQSPRTRIPAPSSQGTQVTVSS
On to B1, for which the binding result is given as “binds”.
